Results are given in words; binding and its absence hold for the method and conditions named. Binding seen in cells or lysates may run through a third protein. Here binding means that the protein was enriched with, or labelled near, the bait; the list need not be complete.
Target: RESURRECTION1 (RST1) fused to GFP (Arabidopsis thaliana) (UniProt Q7XZF5)
Assay: affinity purification with mass spectrometry; GFP-tagged bait captured from cleared lysate of Arabidopsis flower buds (50 mM Tris HCl pH 7.5, 25 or 50 mM NaCl, 1% Triton) on magnetic microbeads coupled to GFP antibodies, five washes; eluate analysed by nanoLC-MS/MS; enrichment against 20 control IPs (adjP < 0.05)

Amino acid sequences for entries named in this document (tags omitted).
UniProt Q7XZF5: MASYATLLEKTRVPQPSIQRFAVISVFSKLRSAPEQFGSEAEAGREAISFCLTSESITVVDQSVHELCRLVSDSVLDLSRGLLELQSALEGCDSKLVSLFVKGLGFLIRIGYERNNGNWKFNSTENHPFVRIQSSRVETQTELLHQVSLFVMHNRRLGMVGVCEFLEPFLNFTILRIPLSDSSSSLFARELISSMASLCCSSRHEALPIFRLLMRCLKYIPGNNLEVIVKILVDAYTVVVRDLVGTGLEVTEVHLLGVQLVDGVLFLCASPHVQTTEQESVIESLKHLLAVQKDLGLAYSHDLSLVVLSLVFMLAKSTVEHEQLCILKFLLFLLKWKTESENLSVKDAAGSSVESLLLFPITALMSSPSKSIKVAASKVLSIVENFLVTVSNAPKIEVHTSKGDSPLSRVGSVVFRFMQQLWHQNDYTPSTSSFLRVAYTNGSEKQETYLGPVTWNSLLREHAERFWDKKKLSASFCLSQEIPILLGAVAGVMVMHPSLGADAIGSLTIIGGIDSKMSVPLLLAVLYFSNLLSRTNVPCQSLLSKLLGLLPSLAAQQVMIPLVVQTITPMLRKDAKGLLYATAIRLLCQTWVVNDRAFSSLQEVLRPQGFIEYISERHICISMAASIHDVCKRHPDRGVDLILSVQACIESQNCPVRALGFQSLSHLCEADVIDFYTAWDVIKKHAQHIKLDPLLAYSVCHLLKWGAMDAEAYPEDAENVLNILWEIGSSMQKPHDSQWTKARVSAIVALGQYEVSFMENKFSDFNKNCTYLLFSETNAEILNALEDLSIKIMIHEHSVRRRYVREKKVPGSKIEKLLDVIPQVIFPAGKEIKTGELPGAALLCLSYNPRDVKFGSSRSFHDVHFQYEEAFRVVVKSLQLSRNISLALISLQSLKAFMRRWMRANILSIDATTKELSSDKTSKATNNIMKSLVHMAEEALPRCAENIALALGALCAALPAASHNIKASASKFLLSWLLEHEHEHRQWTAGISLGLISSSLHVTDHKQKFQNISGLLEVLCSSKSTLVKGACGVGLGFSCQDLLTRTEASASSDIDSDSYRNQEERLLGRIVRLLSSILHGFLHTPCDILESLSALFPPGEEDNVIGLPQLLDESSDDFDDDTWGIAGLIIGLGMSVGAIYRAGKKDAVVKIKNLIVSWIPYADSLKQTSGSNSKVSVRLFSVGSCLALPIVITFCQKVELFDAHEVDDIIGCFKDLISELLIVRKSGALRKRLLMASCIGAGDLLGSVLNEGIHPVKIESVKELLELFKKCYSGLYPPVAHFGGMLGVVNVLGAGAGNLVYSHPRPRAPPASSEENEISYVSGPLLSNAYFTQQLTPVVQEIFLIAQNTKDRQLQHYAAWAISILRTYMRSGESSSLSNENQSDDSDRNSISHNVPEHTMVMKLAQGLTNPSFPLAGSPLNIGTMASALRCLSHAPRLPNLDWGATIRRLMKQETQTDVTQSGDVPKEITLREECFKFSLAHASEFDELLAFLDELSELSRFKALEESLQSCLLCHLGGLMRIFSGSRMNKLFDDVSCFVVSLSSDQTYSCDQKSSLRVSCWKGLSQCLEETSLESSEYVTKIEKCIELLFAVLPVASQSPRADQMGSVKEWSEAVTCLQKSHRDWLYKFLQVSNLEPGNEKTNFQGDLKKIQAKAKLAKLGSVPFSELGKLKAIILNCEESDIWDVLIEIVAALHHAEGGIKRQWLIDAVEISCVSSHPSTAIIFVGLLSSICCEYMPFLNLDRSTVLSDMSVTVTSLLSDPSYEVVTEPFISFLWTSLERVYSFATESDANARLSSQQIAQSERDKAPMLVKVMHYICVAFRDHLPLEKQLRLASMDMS

Binder | binding
RRP4 (protein, UniProt Q9ZVT7 1-322) MVMRKLQLPLSQTQKVRFERAIERLQSLSSSANSDASVIVTDSIPVNHDDAFLKGHGTSEVDGELLATVCGVVERVDKLVYVRTLRARYKPEVGDIVVGRVIEVAQKRWRVELNFNQDGVLMLSSMNMPDGIQRRRTSVDELNMRNIFVEHDVVCAEVRNFQHDGSLQLQARSQKYGKLEKGQLLKVDPYLVKRSKHHFHYVESLGIDLIIGCNGFIWVGEHVEVRDPMAIDDQKDEEMISSSSTGKEQSHIPLETRQTICRIGNAIRVLSNLGFTVTLEVIMETVNLSNSKNIDIHDMLGSEFHVVVAENEAERRRTKRKK | binds
RRP41 (protein, UniProt Q9SP08 1-241) MEYVNPEGLRLDGRRFNEMRQIVAEVGVVSKADGSAVFEMGNTKVIAAVYGPREIQNKSQQKKNDHAVVLCEYSMAQFSTGDRRRQKFDRRSTELSLVIRQTMEACILTELMPHSQIDIFLQVLQADGGTRSACINAATLALADAGIPMRDLAVSCSAGYLNSTPLLDLNYVEDSAGGADVTVGILPKLDKVSLLQMDAKLPMETFETVFALASEGCKAIAERIREVLQENTKQLEYRRAA | binds

Next, values leading:

binding | Binder
binds | RRP46 (protein, UniProt Q9LX74 1-239) MEIDREDGRTPNQLRPLACSRNILHRPHGSASWSQGDTKVLAAVYGPKAGTKKNENAEKACFEVIWKPKSGQIGKVEKEYEMILKRTIQSICVLTVNPNTTTSVIIQVVHDDGSLLPCAINAACAALVDAGIPMKHLAVAICCCLAENGYLVLDPNKLEEKKMTAFAYLVFPNTTLSVLPEGSSVAEGEPVEHGIITSITHGVMSVDDYFLCVENGRAATASLSAFFRKNFQQSSSKAG
binds | RRP45B/CER7 (protein, UniProt Q9M209 1-438) MEGRLANMWRLTVNESKFVETALQSELRVDGRGLYDYRKLTIKFGKEYGSSEVQLGQTHVMGFVTAQLVQPYKDRPNEGSLSIFTEFSPMADPSFEPGRPGESAVELGRIIDRGLRESRAVDTESLCVLAGKMVWSVRIDLHILDNGGNLVDAANIAALAALMTFRRPDCTVGGENGQEVIIHPLEEREPLPLIIHHLPIAFTFGFFNKGNIVVMDPTYVEEAVMCGRMTVTVNANGDICAIQKPGEEGVNQSVILHCLRLASSRAAATTKIIREEVEAYNCERSLQKVKRHPTLAKSEVSGPTVAVKEEHRKSSDQERAAEISREHVERLKLSTEEVRSSKEEEAANFKGGPSNWDPYSEAMDVDSLKVSLASRGDPVTKSSSTKKMNGSGNAQKVGVEISVEEVTGELGKKDTKHKDGEMTLKDAVKPKKKRKNKS

From article PMC6711988
